No constants are given. Whether binding was seen depends on the method and setting.
Molecular target: transcription termination factor ρ P167L variant, non-tagged, purified (E. coli) (UniProt P0AG30)
Experiment: condition: 1200 pmol Psu dimer with 300 pmol ρ^P167L hexamer in 50 µl; SEC; analytical SEC on Superose 6 increase 3.2/300; 300 pmol ρ^wt/P167L hexamer and 1200 pmol Psu dimer (wt or variants) in 50 µl; 10 mM TRIS-HCl pH 7.5, 150 mM NaCl, 5 mM MgCl2, 1 mM DTT; without or with 2 mM ATP or analogs; 32 °C for 10 min before loading; fractions by SDS-PAGE; both purified

Amino acid sequences for entries named in this document (tags omitted). A change or cut given only in a name is not applied to a line headed by its entry.
UniProt P0AG30: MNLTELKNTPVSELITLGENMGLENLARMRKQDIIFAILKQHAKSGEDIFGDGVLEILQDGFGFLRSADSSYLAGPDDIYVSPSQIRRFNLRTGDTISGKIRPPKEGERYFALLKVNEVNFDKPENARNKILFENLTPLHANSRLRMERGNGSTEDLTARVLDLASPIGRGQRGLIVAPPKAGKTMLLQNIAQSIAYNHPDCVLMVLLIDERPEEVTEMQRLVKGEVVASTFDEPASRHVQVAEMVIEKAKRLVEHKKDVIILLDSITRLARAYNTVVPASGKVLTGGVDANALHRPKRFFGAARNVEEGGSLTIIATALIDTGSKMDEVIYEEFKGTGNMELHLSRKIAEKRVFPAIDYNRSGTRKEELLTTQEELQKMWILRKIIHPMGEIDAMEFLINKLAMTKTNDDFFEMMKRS
UniProt P05460: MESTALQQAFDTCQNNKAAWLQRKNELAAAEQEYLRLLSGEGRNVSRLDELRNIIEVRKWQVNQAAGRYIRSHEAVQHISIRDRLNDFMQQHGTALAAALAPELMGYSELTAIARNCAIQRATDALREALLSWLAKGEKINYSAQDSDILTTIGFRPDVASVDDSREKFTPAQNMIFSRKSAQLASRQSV

binding: no binding
Substance: Psu D49R variant, purified (from UniProt P05460 1-190)

— PMC11718236, “The Psu protein of phage satellite P4 inhibits transcription termination factor ρ by forced hyper-oligomerization” (Nature Communications, 2023)
